# Data published in the supplement of paper PMC10849652.
# The chains behind the UniProt entries cited, without tags or fusion partners. Where a name states a change or a piece, a line headed by the entry shows the natural chain unless it says otherwise.
# UniProt Q9NPD3, whole entry, looked up: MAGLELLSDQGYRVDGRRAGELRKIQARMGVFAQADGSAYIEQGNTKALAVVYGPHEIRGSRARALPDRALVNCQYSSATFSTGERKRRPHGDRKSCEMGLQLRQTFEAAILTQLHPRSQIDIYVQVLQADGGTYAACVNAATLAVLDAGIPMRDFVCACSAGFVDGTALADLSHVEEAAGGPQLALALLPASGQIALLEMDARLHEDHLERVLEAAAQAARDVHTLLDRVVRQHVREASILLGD
# UniProt Q9UPT5: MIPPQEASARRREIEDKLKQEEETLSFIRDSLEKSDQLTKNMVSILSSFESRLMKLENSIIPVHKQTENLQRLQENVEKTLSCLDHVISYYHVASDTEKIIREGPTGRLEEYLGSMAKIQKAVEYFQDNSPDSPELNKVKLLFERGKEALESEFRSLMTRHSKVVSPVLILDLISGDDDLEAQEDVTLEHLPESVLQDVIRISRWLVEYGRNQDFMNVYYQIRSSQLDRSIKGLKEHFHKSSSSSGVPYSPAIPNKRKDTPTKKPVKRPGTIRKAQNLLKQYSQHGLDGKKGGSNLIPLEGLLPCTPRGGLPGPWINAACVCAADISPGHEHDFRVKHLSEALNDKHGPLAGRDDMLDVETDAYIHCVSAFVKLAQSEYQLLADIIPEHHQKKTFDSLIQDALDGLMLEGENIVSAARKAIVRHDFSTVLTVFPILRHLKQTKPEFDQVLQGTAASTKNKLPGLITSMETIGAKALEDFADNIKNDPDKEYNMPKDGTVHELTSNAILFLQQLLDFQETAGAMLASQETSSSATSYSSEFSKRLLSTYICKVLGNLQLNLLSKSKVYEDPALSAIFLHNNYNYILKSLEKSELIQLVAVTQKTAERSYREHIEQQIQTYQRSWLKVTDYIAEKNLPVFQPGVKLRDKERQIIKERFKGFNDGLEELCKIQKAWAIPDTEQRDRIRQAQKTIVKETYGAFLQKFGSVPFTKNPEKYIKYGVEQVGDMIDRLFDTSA
# UniProt Q5BKY9: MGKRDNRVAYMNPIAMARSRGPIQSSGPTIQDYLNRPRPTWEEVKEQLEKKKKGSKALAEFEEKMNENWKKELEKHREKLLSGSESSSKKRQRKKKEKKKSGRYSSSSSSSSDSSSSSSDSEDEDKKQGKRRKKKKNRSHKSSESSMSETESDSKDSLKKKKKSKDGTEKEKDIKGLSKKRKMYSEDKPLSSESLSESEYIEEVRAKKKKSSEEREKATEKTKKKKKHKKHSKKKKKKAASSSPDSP
# UniProt Q9NVQ4: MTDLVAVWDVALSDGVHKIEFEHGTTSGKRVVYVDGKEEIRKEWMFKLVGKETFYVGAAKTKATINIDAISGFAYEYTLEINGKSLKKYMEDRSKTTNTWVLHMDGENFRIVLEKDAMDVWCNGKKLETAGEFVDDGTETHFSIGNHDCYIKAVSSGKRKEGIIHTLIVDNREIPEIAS
# UniProt Q9UBQ6: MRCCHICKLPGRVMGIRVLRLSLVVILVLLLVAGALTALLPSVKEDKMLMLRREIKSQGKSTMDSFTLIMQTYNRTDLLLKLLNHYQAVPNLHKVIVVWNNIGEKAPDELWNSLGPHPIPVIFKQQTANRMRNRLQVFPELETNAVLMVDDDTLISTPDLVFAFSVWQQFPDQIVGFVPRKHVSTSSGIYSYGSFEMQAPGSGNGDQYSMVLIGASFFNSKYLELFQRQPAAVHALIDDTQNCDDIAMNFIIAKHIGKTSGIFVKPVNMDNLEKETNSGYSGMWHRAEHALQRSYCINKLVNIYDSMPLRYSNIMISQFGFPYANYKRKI
# UniProt Q9BS26: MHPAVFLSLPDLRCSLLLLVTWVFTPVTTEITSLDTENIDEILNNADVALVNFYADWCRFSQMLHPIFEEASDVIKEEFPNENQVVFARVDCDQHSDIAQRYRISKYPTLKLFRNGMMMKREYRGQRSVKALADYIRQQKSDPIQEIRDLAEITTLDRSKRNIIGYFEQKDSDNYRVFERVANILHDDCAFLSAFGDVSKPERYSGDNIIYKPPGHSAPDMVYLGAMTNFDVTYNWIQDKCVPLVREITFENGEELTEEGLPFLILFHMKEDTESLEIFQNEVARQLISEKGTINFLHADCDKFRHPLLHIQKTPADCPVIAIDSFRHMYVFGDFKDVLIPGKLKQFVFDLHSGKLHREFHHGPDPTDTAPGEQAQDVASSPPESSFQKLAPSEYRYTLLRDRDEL
# UniProt Q96PZ2, whole entry, looked up: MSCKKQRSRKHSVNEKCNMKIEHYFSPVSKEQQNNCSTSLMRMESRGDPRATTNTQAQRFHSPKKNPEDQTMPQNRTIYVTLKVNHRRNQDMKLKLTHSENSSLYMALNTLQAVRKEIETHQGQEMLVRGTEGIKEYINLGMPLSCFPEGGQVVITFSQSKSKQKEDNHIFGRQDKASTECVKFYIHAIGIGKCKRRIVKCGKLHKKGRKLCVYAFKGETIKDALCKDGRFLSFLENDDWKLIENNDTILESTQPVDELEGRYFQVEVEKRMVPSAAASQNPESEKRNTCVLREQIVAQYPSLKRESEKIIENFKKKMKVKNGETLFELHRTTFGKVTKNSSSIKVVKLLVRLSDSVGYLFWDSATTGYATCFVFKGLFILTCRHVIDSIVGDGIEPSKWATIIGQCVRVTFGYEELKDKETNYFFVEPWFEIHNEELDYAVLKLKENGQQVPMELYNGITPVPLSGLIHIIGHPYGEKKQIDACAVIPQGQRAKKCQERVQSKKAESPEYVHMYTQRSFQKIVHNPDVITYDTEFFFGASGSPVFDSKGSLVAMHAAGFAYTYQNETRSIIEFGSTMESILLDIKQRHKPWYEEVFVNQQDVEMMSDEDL
# UniProt O75477: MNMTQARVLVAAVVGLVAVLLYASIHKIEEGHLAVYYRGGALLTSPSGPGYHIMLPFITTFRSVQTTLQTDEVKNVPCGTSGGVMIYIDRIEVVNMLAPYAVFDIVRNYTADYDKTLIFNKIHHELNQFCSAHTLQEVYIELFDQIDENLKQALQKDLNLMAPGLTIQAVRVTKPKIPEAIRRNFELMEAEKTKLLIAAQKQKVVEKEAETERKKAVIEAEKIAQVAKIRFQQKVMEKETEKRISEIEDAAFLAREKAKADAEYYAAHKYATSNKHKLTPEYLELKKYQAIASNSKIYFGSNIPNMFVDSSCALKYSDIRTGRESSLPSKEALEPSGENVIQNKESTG
# UniProt Q9Y3B2, whole entry, looked up: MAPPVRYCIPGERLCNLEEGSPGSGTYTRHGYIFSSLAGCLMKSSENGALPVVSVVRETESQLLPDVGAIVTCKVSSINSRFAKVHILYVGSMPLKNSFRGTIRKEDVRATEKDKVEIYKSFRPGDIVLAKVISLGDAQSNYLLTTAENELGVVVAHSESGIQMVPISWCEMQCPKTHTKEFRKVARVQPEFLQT
# UniProt P98173: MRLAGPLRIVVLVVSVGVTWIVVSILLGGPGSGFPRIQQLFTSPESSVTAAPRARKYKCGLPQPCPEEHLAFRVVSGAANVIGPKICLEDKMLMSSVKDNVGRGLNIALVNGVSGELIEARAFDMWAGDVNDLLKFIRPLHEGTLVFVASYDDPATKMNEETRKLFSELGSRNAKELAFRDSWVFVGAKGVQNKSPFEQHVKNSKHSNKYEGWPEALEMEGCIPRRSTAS
# UniProt Q7Z2K6: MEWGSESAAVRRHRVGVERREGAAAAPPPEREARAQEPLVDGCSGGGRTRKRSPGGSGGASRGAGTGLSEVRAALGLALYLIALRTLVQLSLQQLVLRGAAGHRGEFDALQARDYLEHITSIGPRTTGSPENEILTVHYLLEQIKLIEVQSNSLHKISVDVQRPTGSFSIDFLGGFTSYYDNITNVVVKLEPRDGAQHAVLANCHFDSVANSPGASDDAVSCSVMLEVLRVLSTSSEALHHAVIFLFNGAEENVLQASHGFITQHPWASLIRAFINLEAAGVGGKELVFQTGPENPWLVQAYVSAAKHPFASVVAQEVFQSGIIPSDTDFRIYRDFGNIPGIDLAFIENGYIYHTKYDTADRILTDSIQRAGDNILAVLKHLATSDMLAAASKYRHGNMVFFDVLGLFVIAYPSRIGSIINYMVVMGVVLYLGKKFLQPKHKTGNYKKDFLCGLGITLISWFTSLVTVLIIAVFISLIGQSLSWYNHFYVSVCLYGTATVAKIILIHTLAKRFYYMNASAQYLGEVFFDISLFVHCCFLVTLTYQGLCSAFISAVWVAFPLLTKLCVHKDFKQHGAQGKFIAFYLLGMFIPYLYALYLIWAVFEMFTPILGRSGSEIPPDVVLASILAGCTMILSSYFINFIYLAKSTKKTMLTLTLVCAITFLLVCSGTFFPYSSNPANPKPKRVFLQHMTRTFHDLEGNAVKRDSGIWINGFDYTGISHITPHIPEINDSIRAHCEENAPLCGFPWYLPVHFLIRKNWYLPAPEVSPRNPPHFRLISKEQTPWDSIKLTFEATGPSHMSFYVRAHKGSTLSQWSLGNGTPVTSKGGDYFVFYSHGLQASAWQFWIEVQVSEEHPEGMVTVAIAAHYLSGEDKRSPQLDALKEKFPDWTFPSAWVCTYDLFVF
# UniProt P16930: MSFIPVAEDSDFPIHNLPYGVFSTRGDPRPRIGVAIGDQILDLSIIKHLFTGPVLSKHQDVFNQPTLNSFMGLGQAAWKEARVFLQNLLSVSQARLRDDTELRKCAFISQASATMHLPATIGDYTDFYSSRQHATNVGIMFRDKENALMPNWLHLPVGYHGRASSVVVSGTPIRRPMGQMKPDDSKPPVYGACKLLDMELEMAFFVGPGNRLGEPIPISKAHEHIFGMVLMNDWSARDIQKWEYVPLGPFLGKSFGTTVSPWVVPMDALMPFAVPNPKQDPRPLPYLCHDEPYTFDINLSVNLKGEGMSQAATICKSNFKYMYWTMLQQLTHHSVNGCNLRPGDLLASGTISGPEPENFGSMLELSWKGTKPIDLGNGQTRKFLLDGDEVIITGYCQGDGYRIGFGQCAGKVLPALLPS
# UniProt O00471: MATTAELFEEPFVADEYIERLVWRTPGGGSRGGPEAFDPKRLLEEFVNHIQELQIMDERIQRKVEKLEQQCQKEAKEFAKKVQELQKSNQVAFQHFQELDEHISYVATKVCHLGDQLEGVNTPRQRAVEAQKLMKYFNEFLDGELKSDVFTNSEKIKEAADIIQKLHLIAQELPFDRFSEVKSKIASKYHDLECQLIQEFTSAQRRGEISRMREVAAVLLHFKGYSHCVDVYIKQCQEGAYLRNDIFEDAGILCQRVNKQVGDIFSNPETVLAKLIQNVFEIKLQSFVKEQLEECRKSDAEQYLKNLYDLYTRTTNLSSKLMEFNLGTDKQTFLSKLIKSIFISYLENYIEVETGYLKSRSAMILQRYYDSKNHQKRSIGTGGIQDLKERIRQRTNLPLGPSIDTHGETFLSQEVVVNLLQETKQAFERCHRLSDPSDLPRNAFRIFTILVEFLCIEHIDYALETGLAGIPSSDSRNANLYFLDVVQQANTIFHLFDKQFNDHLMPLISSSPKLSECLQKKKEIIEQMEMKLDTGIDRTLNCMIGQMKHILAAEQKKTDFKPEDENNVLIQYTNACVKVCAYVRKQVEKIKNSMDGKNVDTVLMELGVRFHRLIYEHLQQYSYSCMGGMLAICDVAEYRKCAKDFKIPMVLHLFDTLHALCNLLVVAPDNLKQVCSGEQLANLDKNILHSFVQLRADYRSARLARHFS
# UniProt Q8N612: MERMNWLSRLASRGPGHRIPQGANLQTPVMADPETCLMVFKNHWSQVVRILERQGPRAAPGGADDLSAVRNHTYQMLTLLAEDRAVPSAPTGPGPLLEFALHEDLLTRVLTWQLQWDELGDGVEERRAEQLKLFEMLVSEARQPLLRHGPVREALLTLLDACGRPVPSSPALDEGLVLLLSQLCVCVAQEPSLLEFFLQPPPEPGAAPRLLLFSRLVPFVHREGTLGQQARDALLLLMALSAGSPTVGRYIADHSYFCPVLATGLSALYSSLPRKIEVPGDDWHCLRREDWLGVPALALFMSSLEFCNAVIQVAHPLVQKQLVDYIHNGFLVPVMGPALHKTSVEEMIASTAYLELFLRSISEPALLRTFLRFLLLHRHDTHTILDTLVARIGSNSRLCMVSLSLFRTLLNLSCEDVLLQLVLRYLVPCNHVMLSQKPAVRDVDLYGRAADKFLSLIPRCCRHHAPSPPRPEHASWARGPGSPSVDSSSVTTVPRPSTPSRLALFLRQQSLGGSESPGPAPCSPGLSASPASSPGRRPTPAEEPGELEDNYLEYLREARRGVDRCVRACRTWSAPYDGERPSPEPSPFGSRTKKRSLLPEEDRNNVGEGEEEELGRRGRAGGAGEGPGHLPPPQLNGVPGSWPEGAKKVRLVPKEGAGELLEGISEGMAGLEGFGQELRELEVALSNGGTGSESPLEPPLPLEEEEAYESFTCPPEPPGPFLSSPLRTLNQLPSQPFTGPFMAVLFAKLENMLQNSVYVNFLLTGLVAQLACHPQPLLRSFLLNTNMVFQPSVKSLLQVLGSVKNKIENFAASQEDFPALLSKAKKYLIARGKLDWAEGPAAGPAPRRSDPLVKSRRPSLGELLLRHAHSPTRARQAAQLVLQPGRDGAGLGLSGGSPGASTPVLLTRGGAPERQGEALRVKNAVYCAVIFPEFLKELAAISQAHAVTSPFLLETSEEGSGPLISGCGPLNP
# Some of the results follow.
# Compound: NCC(=O)Nc1ccc(-n2nc(C(F)(F)F)cc2-c2ccc3c(ccc4ccccc43)c2)cc1
# Assay: log2 fold change, soluble protein after heating vs DMSO (PISA); higher = thermal stabilisation; K562 lysate, 10 uM; active = over 0.2 and 3.5 SD of the protein, either way, in both replicates (recomputed)
# Procedure, shortened: (§1)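 Dounce homogenisation of K562 pellets in PBS pH 7.4 with 1 mM MgCl2 produced a crude extract, used at 1 mg/mL protein. Exposure to 10 μM compound lasted 30 min, and aliquots were then heated for 3 min across 48°C-58°C, pooled and brought to 0.5% NP-40 at 4°C. The supernatant after 21,000xg for 90 min was quantified by TMTpro 16plex LC-MS/MS with channel sums equalised. Duplicate values are given as log-two fold change in thermal stability relative to solvent controls.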
row,Target,log2 fold change
1,FAAP100 (UniProt Q0VG06),inactive: -0.271
2,"ERVK3-1, A0A0U1RQV1",inactive: 0.077
3,ESD (UniProt P10768),inactive: 0.028
4,EXOSC4 (UniProt Q9NPD3),inactive: 0.027
5,EXOC7 (UniProt Q9UPT5),inactive: 0.062
6,FAM118B (UniProt Q9BPY3),inactive: 0
7,FAM107B isoform 2 (UniProt Q9H098),inactive: 0.022
8,FAM133B (UniProt Q5BKY9),inactive: -0.152
9,FAM76B (UniProt Q5HYJ3),inactive: -0.018
10,F5 (UniProt P12259),inactive: -0.074
11,FAIM isoform 2 (UniProt Q9NVQ4),inactive: 0.055
12,FAM50A (UniProt Q14320),inactive: -0.033
13,FAM241A (UniProt Q8N8J7),inactive: -0.066
14,ERLEC1 (UniProt Q96DZ1),inactive: 0.004
15,EXOSC9 (UniProt Q06265),inactive: -0.005
16,FAM78A (UniProt Q5JUQ0),inactive: 0.032
17,EXTL2 (UniProt Q9UBQ6),inactive: -0.171
18,ETFB (UniProt P38117),inactive: 0.04
19,ERP44 (UniProt Q9BS26),inactive: 0.019

row,Target,log2 fold change
1,FAM111A (UniProt Q96PZ2),inactive: 0.036
2,ERLIN1 (UniProt O75477),inactive: -0.07
3,ESPL1 (UniProt Q14674),inactive: 0.027
4,ERICH1 (UniProt Q86X53),inactive: -0.039
5,EXOSC1 (UniProt Q9Y3B2),inactive: -0.03
6,FAM3A (UniProt P98173),inactive: -0.037
7,ERP29 (UniProt P30040),inactive: -0.032
8,FAM3C (UniProt Q92520),inactive: 0.013
9,ERMP1 (UniProt Q7Z2K6),inactive: -0.033
10,FAM160B1 (UniProt Q5W0V3),inactive: 0.006
11,FAH (UniProt P16930),inactive: -0.011
12,FAM120A isoform 6 (UniProt Q9NZB2),inactive: 0.012
13,ETHE1 (UniProt O95571),inactive: -0.01
14,EVI5 isoform 2 (UniProt O60447),inactive: 0.032
15,ETNK1 (UniProt Q9HBU6),inactive: 0.032
16,EXOC5 (UniProt O00471),inactive: 0.036
17,FAM160A2 isoform 2 (UniProt Q8N612),inactive: 0.006
18,FAHD2B (UniProt Q6P2I3),inactive: 0.12
19,FAF1 (UniProt Q9UNN5),inactive: -0.009

# Compound: O=C(CCCCCCC(=O)Nc1ccccc1)NO [vorinostat]
# Assay: as above
# Procedure, shortened: as §1
row,Target,log2 fold change
1,FAAP100 (UniProt Q0VG06),inactive: -0.203
2,"ERVK3-1, A0A0U1RQV1",inactive: 0.044
3,ESD (UniProt P10768),inactive: 0.009
4,EXOSC4 (UniProt Q9NPD3),inactive: 0.138
5,EXOC7 (UniProt Q9UPT5),inactive: -0.086
6,FAM118B (UniProt Q9BPY3),active: -0.273
7,FAM107B isoform 2 (UniProt Q9H098),inactive: 0.117
8,FAM133B (UniProt Q5BKY9),inactive: 0.162
9,FAM76B (UniProt Q5HYJ3),inactive: 0.026
10,F5 (UniProt P12259),inactive: 0.105
11,FAIM isoform 2 (UniProt Q9NVQ4),inactive: 0.069
12,FAM50A (UniProt Q14320),inactive: 0.042
13,FAM241A (UniProt Q8N8J7),inactive: 0.07
14,ERLEC1 (UniProt Q96DZ1),inactive: 0.055
15,EXOSC9 (UniProt Q06265),inactive: 0.194
16,FAM78A (UniProt Q5JUQ0),inactive: 0.107
17,EXTL2 (UniProt Q9UBQ6),inactive: 0.189
18,ETFB (UniProt P38117),inactive: 0.085
19,ERP44 (UniProt Q9BS26),inactive: 0.07

row,Target,log2 fold change
1,FAM111A (UniProt Q96PZ2),inactive: -0.364
2,ERLIN1 (UniProt O75477),inactive: 0.063
3,ESPL1 (UniProt Q14674),inactive: -0.21
4,ERICH1 (UniProt Q86X53),inactive: -0.024
5,EXOSC1 (UniProt Q9Y3B2),inactive: 0.151
6,FAM3A (UniProt P98173),inactive: 0.123
7,ERP29 (UniProt P30040),inactive: 0.114
8,FAM3C (UniProt Q92520),inactive: 0.132
9,ERMP1 (UniProt Q7Z2K6),inactive: 0.131
10,FAM160B1 (UniProt Q5W0V3),inactive: -0.071
11,FAH (UniProt P16930),inactive: 0.107
12,FAM120A isoform 6 (UniProt Q9NZB2),inactive: -0.134
13,ETHE1 (UniProt O95571),inactive: -0.113
14,EVI5 isoform 2 (UniProt O60447),inactive: -0.316
15,ETNK1 (UniProt Q9HBU6),inactive: -0.029
16,EXOC5 (UniProt O00471),active: -0.293
17,FAM160A2 isoform 2 (UniProt Q8N612),inactive: -0.043
18,FAHD2B (UniProt Q6P2I3),inactive: 0.209
19,FAF1 (UniProt Q9UNN5),inactive: 0.011
